{"source": "patent US11547699B2", "about": "“[2-[(5-nitro-1,3-thiazol-2-yl)carbamoyl]phenyl]ethanoate for use in lymphangioleiomyomatosis and other diseases” (priority 2017, dated 2023)", "key": {"[1]": {"system": "phosphorylation of the ribosomal protein S6 in 621-101 cells", "test": "rpS6 phosphorylation in 621-101 cells (ELISA and Western blotting), read-out for mTOR pathway activity", "type": "cell-based", "conditions": "621-101 cells (human angiomyolipoma-derived, TSC2 mutations), 60 minutes incubation, serum free medium, 3 independent experiments", "protocol": "These assays are used to test the effect of a compound on the activity of the mTOR pathway. Phosphorylation of ribosomal protein rp60 is used as read-out for mTOR pathway activity. […] Thus, these assays mimic a disease causative mechanism. 621-101 cells are human cells derived from an angiomyolipoma. They have verified TSC2 mutations and are the only disease-derived mutation-bearing cells used that are mimicking the disease Lymphangioleiomyomitosis. Cells were grown to 60-80% confluence in DMEM+10% serum. Medium was replaced with fresh serum free medium two hours before addition of test compound of the invention. Compound was added as a 1:1000 dilution of the stock solution in DMSO. DMSO was added as a vehicle control, and samples were incubated for a further 60 minutes. For ELISA, cells were harvested into 200 ul cell lysis buffer containing both protease and phosphatase inhibitors, to protect the phosphorylation status of rpS6. Lysates were stored at −80° C. prior to use. 50 ul of lysate per sample was used for the ELISA, which was carried out according to manufacturers' instructions. For Western blotting, cells were harvested into 200 ul cell lysis buffer containing both protease and phosphatase inhibitors and resolved by SDS-PAGE before transfer to PVDF membrane and incubation with anti-phospho-rpS6 and anti-total-rpS6 antibodies."}, "[2]": {"system": "phosphorylation of the ribosomal protein S6 in MEF cells", "test": "rpS6 phosphorylation in MEF cells (ELISA and Western blotting), read-out for mTOR pathway activity", "type": "cell-based, mouse", "conditions": "MEF cells (TSC2 knockout MEF110 and TSC2+ MEF157), 60 minutes incubation, serum free medium, 3 independent experiments, ELISA normalised to vehicle control", "text": "These assays are used to test the effect of a compound on the activity of the mTOR pathway. Phosphorylation of ribosomal protein rp60 is used as read-out for mTOR pathway activity. […] Thus, these assays mimic a disease causative mechanism.\nMEFs are mouse embryo fibroblasts derived from TSC2 knockout (MEF110) and TSC2+ (MEF157) mice. Tsc2 mutations are known to cause tuberous sclerosis and lymphangioleiomyomatosis in humans.\nAll cells were maintained in DMEM tissue culture medium, with the addition of fetal calf serum to 10% to support cell proliferation, at 37° C. and 5% CO2.\nIn MEFs, ribosomal protein S6, which is a component of the 40S ribosome, and phosphorylated at Ser236 by p70 S6 kinase can be assayed by ELISA and Western blotting, using phospho-specific antibodies which detect both the human and the mouse forms of rpS6. This assay is predicitve of compounds with protective or therapetic activities for respiratory and vascular diseases, fibrotic diseases, or neurodegenerative diseases.\nCells were grown to 60-80% confluence in DMEM+10% serum. Medium was replaced with fresh serum free medium two hours before addition of test compound of the invention.\nCompound was added as a 1:1000 dilution of the stock solution in DMSO. DMSO was added as a vehicle control, and samples were incubated for a further 60 minutes. […]"}}, "note": "At least one compound was matched to its structure with a doubt left."}
{"smiles": "CC(=O)Oc1ccccc1C(=O)Nc1ncc([N+](=O)[O-])s1", "note": "[the compound of the invention, [2-[(5-nitro-1,3-thiazol-2-yl)carbamoyl]phenyl]ethanoate]", "values": [{"measurement": "inhibition of the phosphorylation of the ribosomal protein S6", "setting": "[1]", "value": "dose-dependent inhibition"}, {"measurement": "inhibition of the phosphorylation of the ribosomal protein S6", "setting": "[2]", "value": "dose-dependent inhibition"}]}
